Values of other authors as cited in patent US20070135490A1, “Phenetanolamine derivatives” (priority 2003, published 2007).
Some of these results come from one statement about several compounds together. For at least one compound, name, drawing or mass did not settle the structure.

Tested on: PDE4
Details: 1 nM [3H]R-rolipram binding vs catalytic activity with 1 μM [3H]-cAMP; cited from earlier work

For COC(=O)C1CC(C#N)(c2ccc(OC(F)F)c(OCC3CC3)c2)CCC1=O (stereo not drawn) [2-carbomethoxy-4-cyano-4-(3-cyclopropylmethoxy-4-difluoromethoxyphenyl)cyclohexan-1-one], which “IC50 ratio: IC50 for the PDE4 catalytic form which binds rolipram with a high affinity divided by the IC50 for the form which binds rolipram with a low affinity” value is on record?
The value was ≥ 0.1.

For COc1ccc([C@]2(C#N)CC[C@@H](C(=O)O)CC2)cc1OC1CCCC1 [cis 4-cyano4-(3-cyclopentyloxy4-methoxyphenyl)cyclohexan-1-carboxylic acid], which “IC50 ratio: IC50 for the PDE4 catalytic form which binds rolipram with a high affinity divided by the IC50 for the form which binds rolipram with a low affinity” value is on record?
Its value is ≥ 0.1.

With N#CC1(c2ccc(OC(F)F)c(OCC3CC3)c2)CCC(O)CC1 (stereo not drawn) [cis-[4-cyano-4-(3-cyclopropylmethoxy-4-difluoromethoxyphenyl)cyclohexan-1-ol]] as the compound, how does the “IC50 ratio: IC50 for the PDE4 catalytic form which binds rolipram with a high affinity divided by the IC50 for the form which binds rolipram with a low affinity” value read?
Its value is ≥ 0.1.
